Reference: patent publication US20190282600A1, “COMBINATION THERAPIES TARGETING TERT DEPENDENCY FOR CANCER THERAPY” (The Wistar Institute of Anatomy and Biology, priority 2018, published 2019)
At least one structure is not confirmed: it was looked up by name or label, or the drawing left a doubt.

System: TERT
Experiment: TERT mRNA levels by qRT-PCR
Type: cell-based, Human

CC(=O)Nc1cccc(-n2c(=O)n(C3CC3)c(=O)c3c(Nc4ccc(I)cc4F)n(C)c(=O)c(C)c32)c1 [trametinib]
TERT mRNA levels (NRAS mutant melanoma cells WM3000 or WM3629, trametinib 100 nM for 24, 48, 72 h): downregulated TERT mRNA levels

CC(=O)c1c(C)c2cnc(Nc3ccc(N4CCNCC4)cn3)nc2n(C2CCCC2)c1=O [palbociclib]
TERT levels (WM3000 cells, palbociclib at indicated doses for 72 h): did not significantly affect TERT levels
